Primary screen of a compound library

Each number is a percent effect as filed.
The controls that fix the scale are not given in the record; negative values are as filed.
This is an unselected part of the compounds tested.
Two or more numbers in one place are separate tests of the same structure; such repeats can differ widely.

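Viability assay of Plasmodium falciparum sporozoites; the read-out is not stated. The concentration is filed as 10 mM, unlikely as a test dose, so the dose is not known. Direction is inferred from retests: higher values go with lower viability. Strong results were mostly tested again. About 34,000 compounds were tested under these conditions; 0.84% (about 280) showed 50% or more at least once.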

CC(C)c1nc2n(n1)CC(NCc1ccncc1)CC2 (centres unmarked) read -17.7%.
CC(C)c1cc(Br)ccc1NC(=O)NCC(O)CO (centres unmarked) read -16.49%.
CN(C)C1CCCN(C(=O)c2ccc3sc4c(c3c2)CCNC4=O)CC1 (centres unmarked) read -4.123%.
c1cncc(-c2noc(CNC3CCc4ncnn4C3)n2)c1 (centres unmarked) read 6.345%.
CC(C)n1ccnc1CN1CCCN(C(=O)c2cc(Cl)c[nH]2)CC1 read 0%.
Cc1cnccc1NCCn1ccnc1C1CCCCC1 read -9.091%.
Cn1nnc2cc(C(=O)NS(=O)(=O)c3cccc(C#N)c3)ccc21 read -22.58%.
COc1ccc(OCCc2sc(C3(O)CCCNCC3)nc2C)cc1.Cl (centres unmarked) read -3.91%.
Cc1ccc(NC(=O)CCC2CC2)cc1N1CCOC1=O read 1.669%.
O=C(NCC1CCCOC1)c1ccc(-c2ccccc2)[nH]c1=O (centres unmarked) read 5.149%.
CC(C)C1CN(c2ncc(F)cn2)CCC(=O)N1Cc1ccc(F)cc1 (centres unmarked) read -1.344%.
COCCO[C@H]1CCN(C(=O)c2ccsc2)[C@H]1Cc1ccncc1 read 4.08%.
[H][C@@]12C[C@H](C)O[C@]1([H])CCN(C(=O)COCC)C2 read -4.897%.
CNc1cccc(C2CN(C(=O)c3c[nH]cn3)CCO2)n1 (centres unmarked) read 7.685%.
CCCC(O)CN1CC(C)(C)CN(C(=O)CCc2ccccc2)CC1=O (centres unmarked) read -29.7%.
Cc1c[nH]nc1C1CCCCN1C(=O)CCn1nccc1C (centres unmarked) read 12.55%.
CN1C(=O)CCCC12CCCN(C(=O)c1cc(F)cc(F)c1)C2 (centres unmarked) read -7.401%.
COc1ccc(-n2ccc(C(=O)NCCN3CCC(C)CC3)n2)cc1 read -0.7157%.
COc1ccc(C(=O)N2CCCC2c2cnn(C)c2)cn1 (centres unmarked) read 13.98%.
CCCn1nc(C)c(-c2cncn2CC2(N(C)C)CCC(C)CC2)c1C (centres unmarked) read 5.695%.
Cc1cc(-c2nn(C)c(Cl)c2CN2CCOCC2CC(N)=O)no1 (centres unmarked) read 3.418%.
Cc1ccsc1CNC(=O)N(C)Cc1cnn(C)c1 read -5.809%.
Cc1nn(C)cc1CN1CCc2nc3sccc3c(=O)n2CC1 read 1.966%.
Cc1nc(S(=O)(=O)NCCC(=O)NCc2ccc(C#N)cc2)cn1C read -24%.
O=C(NCC1CC1)C1CN(c2ncccn2)Cc2ccnn2C1.O=C(O)C(F)(F)F.O=C(O)C(F)(F)F (centres unmarked) read -12.31%.
Cn1cc(C(=O)CC2CCCN2C(=O)c2c[nH]c3ccccc23)cn1 (centres unmarked) read 3.987%.
CCc1noc(C(C)N2CCC(N3CCCC3)CC2)n1 (centres unmarked) read -12.25%.
Cc1nnc(NCCC(=O)N(C)Cc2ccccc2)c(C#N)c1C read 4.042%.
Cc1nc(C(=O)N2CCC(Cc3cnc4[nH]ccc4c3)C2)co1 (centres unmarked) read 1.649%.
Cc1ccc(S(=O)(=O)N2CCCC(c3n[nH]cc3C(=O)N(C)C)C2)cc1 (centres unmarked) read 10.29%.
CC(C)N(C)Cc1nnc2n1CCCN(c1ncccn1)C2.O=C(O)C(F)(F)F read 5.373%.
COc1ccc(CN2CCn3c(CO)nnc3C2)cc1CN1CCCC1.O=C(O)CC(O)(CC(=O)O)C(=O)O read -5.275%.
CCOc1ccc(C(=O)Nc2c(C)nc3cccc(C)n3c2=O)cc1 read -6.449%.
NC(=O)CC1CCN(C(=O)c2cccn2Cc2cccs2)CC1 read 7.399%.
O=C(NC1CCCCC1)[C@H]1CNC[C@@H](COc2cccnc2)C1 read -11.72%.
O=C(O)C(F)(F)F.O=C(c1cnccn1)N1CCOC2(CCCN(c3ncccc3F)C2)C1 (centres unmarked) read -6.679%.
Cc1ccc(F)c(S(=O)(=O)NCc2[nH]ncc2Br)c1 read -5.216%.
Cc1ccc(-c2nc(CC3CCN(C)CC3)no2)cc1N1CCNC1=O read -6.834%.
CC(C)OCCCN(CC(=O)N1CCNCC1)C(=O)c1cccc(Cl)c1.O=C(O)C(F)(F)F read -2.452%.
Cc1cc(CN2CCc3nn(C)c(=O)cc3C2)no1 read 2.722%.
CC(C)COCC(NC(=O)c1cc[nH]n1)c1ccco1 (centres unmarked) read 11.36%.
Cc1cnn(CC(C)NCc2ccc(OCc3noc(C)n3)cc2)c1 (centres unmarked) read -5.89% and -12.42% and 44.15%.
Cc1ccc(CC(=O)N2CCCC(c3n[nH]c4nccnc34)C2)cc1 (centres unmarked) read -10.27%.
[H][C@]12CCC[C@@]1(COCC)CN(C(=O)c1ccc(OC)cc1)C2 read 8.833%.
[H][C@@]12CS(=O)(=O)C[C@]1([H])N(C(=O)CCn1cc(C)cn1)CCN2C(=O)C1CC1 read -12.46%.
O=C(Nc1ccc(F)cc1-c1nc(C2CC2)no1)N1CC[C@@H](O)C1 read -16.58%.
Cc1ccccc1OCCC(=O)N1CCCC(n2cncn2)C1 (centres unmarked) read -10.14%.
CCn1nc(C)c2nc(C(C)C)nc(N3CCCCC3)c21 read -1.963%.
CCc1nc(CC)n(CC(=O)N(C)Cc2ccc(F)cc2)n1 read -12.62%.
Cc1ncc(-c2ccnc(NCCO)n2)c(C2CCCCC2)n1 read 1.27%.
Cc1ncsc1C(=O)NC1CCN(CC(=O)NCc2ccccc2)CC1 read 3.504%.

The first 3 entries again:

Result for CC(C)c1nc2n(n1)CC(NCc1ccncc1)CC2 (centres unmarked) was -17.7%.
Result for CC(C)c1cc(Br)ccc1NC(=O)NCC(O)CO (centres unmarked) was -16.49%.
Result for CN(C)C1CCCN(C(=O)c2ccc3sc4c(c3c2)CCNC4=O)CC1 (centres unmarked) was -4.123%.

Data taken from ChEMBL document CHEMBL3988442, “University of Dundee, Small-Polar-MMV Screening Library” (2021).